{"sequences": {"note": "Amino acid sequences for entries named in this document (tags omitted). A change or cut given only in a name is not applied to a line headed by its entry.", "UniProt Q9BQ70": "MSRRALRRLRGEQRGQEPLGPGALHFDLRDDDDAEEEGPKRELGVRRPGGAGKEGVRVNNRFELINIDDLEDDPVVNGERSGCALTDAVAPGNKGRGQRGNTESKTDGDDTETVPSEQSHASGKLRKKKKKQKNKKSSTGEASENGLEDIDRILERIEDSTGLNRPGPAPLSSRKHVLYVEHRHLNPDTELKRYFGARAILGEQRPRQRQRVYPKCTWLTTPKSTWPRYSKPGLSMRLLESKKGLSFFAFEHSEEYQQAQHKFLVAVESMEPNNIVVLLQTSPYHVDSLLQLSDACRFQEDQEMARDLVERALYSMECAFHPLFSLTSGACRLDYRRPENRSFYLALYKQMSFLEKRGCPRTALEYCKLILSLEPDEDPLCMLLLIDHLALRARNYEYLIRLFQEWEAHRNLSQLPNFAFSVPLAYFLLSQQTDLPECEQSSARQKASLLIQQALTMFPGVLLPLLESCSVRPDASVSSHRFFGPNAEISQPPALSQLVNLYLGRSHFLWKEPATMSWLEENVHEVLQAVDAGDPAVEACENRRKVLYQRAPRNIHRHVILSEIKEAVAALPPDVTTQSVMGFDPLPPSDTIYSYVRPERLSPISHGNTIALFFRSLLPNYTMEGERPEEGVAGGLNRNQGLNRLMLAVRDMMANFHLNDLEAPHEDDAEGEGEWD", "UniProt Q13428": "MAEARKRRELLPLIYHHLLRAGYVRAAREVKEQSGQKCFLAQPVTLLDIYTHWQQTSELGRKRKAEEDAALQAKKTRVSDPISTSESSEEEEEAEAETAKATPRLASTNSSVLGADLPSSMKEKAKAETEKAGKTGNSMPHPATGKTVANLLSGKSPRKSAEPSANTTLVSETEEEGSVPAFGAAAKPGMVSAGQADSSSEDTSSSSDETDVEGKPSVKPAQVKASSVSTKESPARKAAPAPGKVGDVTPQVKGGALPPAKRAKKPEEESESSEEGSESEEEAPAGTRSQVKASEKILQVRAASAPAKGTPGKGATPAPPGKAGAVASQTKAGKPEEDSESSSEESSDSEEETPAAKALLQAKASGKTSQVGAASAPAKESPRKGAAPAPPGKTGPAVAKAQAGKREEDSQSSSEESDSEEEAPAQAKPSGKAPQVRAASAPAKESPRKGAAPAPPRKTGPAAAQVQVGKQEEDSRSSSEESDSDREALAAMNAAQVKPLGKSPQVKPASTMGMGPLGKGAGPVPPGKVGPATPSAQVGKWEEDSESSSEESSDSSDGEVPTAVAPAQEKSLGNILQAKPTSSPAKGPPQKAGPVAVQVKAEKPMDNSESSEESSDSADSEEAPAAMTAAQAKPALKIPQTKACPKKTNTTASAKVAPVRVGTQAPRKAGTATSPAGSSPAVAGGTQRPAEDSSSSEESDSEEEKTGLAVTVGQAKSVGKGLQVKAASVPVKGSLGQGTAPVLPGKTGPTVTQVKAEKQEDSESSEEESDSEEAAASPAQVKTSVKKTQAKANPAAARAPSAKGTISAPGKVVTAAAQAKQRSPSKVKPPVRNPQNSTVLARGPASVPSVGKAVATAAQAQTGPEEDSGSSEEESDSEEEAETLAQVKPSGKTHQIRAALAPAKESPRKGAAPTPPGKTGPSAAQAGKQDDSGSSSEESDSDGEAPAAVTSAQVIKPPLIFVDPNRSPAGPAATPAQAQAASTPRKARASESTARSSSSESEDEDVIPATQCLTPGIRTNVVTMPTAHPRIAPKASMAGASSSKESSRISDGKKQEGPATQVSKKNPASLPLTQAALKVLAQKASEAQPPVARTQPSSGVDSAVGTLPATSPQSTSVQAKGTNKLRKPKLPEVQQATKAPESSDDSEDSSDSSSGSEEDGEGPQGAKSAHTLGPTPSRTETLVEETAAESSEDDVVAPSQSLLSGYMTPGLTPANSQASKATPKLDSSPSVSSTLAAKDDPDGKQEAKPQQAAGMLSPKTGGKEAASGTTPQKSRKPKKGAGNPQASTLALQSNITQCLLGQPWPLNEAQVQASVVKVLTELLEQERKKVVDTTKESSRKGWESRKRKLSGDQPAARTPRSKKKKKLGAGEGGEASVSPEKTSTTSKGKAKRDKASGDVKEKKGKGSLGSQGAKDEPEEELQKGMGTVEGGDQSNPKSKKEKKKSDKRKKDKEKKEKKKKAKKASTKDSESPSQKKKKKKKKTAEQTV", "UniProt Q5JUR7": "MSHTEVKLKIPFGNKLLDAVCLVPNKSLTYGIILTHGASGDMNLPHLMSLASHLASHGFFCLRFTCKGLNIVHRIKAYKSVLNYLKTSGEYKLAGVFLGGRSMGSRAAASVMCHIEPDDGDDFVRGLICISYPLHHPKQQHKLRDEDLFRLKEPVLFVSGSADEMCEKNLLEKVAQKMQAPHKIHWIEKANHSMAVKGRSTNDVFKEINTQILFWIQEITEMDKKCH", "UniProt Q96EI5": "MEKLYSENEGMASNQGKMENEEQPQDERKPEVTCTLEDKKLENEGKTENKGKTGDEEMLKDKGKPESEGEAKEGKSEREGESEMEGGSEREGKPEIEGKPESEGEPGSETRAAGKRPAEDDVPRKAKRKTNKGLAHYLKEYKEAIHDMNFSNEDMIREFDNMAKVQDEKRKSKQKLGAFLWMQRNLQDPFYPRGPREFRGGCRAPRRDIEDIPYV", "UniProt Q6ZT07": "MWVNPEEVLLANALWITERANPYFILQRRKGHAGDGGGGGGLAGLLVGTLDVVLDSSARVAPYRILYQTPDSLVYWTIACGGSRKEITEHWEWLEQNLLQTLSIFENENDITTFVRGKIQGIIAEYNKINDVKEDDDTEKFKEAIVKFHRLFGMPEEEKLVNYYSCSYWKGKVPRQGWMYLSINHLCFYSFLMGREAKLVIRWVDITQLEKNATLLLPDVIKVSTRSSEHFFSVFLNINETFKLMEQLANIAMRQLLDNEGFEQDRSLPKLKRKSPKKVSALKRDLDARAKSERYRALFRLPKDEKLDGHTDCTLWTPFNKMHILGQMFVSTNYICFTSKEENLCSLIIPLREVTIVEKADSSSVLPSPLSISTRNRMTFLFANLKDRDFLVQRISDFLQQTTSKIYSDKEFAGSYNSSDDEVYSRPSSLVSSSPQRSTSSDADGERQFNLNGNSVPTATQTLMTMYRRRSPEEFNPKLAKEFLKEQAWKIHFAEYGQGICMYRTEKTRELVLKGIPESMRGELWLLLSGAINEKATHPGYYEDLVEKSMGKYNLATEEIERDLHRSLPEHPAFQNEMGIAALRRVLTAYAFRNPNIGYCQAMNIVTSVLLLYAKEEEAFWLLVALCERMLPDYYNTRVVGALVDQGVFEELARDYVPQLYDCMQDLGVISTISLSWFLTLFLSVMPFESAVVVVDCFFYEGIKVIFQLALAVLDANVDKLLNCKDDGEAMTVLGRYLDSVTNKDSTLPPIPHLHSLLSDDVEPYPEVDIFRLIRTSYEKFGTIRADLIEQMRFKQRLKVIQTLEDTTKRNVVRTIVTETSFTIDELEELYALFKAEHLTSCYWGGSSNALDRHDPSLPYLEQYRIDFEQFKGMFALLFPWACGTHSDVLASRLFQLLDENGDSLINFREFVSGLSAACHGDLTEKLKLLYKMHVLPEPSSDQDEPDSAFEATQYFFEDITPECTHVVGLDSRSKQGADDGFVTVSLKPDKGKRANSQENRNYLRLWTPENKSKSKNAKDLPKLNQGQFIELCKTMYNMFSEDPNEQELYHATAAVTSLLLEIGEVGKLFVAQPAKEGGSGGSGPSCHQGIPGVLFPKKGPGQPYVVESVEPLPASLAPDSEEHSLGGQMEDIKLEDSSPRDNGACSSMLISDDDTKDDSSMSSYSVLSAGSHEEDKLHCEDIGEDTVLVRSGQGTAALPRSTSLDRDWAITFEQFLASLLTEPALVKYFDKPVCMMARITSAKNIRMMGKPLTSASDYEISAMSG", "UniProt Q96CG3": "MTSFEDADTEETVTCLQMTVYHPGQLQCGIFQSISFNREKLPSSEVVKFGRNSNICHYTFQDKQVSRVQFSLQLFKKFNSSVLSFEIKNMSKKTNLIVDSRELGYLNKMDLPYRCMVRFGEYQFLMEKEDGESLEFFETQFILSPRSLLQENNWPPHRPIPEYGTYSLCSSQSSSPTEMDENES", "UniProt Q9UBB9": "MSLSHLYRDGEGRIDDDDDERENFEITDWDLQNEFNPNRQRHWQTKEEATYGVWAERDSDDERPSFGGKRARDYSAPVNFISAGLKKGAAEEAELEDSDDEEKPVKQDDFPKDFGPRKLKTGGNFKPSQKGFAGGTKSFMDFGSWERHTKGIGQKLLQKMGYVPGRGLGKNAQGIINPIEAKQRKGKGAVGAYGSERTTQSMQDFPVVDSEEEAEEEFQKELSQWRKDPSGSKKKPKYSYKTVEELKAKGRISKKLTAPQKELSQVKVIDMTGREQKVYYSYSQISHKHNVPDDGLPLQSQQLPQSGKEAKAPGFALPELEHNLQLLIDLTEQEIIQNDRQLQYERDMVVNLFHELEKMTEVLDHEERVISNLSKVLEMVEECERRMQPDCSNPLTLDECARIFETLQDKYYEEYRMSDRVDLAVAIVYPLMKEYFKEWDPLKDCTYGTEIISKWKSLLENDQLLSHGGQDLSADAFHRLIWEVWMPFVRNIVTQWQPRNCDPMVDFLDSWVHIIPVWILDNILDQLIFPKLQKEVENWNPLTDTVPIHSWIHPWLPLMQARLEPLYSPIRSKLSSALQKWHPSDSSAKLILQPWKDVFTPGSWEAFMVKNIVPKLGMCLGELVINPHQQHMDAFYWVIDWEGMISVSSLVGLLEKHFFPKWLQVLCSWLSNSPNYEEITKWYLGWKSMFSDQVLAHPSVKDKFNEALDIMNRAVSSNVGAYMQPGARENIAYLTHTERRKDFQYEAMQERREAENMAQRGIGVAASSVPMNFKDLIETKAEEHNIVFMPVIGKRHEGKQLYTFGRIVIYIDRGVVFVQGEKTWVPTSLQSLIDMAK", "UniProt Q04726": "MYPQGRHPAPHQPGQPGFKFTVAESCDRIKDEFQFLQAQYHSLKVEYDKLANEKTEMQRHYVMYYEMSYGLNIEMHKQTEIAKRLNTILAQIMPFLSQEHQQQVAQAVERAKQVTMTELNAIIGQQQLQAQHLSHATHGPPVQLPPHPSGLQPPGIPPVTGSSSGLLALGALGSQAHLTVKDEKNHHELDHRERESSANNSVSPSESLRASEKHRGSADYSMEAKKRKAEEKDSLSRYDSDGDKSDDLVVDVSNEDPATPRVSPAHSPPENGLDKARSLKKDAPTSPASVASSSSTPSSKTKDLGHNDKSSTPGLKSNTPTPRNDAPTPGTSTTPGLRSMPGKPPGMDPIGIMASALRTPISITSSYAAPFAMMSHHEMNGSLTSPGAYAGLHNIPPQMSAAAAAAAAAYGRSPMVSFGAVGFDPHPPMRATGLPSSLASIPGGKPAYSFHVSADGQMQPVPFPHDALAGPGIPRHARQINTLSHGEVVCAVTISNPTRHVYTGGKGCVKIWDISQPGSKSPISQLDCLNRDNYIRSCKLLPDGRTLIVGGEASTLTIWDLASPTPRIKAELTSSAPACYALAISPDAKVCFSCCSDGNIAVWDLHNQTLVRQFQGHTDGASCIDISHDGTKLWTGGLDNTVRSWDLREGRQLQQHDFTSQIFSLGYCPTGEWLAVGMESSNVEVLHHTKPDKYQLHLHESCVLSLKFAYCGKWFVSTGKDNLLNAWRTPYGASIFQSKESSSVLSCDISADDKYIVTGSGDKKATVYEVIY", "UniProt A6NFQ2": "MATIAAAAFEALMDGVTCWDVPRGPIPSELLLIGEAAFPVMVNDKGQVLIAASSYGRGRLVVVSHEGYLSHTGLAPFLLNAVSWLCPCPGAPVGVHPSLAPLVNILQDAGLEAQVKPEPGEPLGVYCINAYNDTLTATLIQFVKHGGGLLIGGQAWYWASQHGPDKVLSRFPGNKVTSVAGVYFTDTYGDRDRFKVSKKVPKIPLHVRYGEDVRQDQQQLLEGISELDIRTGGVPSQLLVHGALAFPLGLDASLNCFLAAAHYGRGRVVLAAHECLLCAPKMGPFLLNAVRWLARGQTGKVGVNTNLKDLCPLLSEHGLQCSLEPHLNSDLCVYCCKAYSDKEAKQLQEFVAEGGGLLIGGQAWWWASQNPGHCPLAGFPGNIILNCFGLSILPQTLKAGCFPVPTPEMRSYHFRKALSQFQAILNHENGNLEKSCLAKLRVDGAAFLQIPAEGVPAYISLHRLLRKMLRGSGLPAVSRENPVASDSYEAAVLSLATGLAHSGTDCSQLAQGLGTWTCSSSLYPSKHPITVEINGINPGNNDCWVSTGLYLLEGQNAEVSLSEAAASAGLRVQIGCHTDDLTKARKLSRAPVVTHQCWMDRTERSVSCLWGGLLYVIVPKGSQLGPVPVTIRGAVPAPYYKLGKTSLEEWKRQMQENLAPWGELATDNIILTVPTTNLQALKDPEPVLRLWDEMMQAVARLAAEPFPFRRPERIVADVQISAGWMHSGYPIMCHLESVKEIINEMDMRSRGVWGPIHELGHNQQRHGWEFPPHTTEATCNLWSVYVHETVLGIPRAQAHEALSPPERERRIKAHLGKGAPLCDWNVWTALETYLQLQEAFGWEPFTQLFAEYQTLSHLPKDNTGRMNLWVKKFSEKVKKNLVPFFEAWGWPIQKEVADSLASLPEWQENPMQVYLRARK"}, "source": "the supplement of paper PMC10849652", "note": "The other results are listed elsewhere or left out."}
{"compound": "CNC(=O)c1ccc(Nc2ncc(C(F)(F)F)c(NCc3nccnc3N(C)S(C)(=O)=O)n2)cc1 [defactinib]", "assay": "log2 fold change, soluble protein after heating vs DMSO (PISA); higher = thermal stabilisation; K562 cells, 10 uM, 30 min; active = over 0.2 and 3.5 SD of the protein, either way, in both replicates (recomputed)", "method_in_brief": "(§1)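 Soluble protein was defined as the supernatant after 21,000xg for 90 min. It came from K562 cells at 2×10^6 cells/mL given 10 μM compound for 30 min, heated in aliquots for 3 min across 48°C-58°C, pooled, and extracted in PBS with 0.5% NP-40 at 4°C, and was quantified by TMTpro 16plex LC-MS/MS with equalised channel sums. Thermal stability against control samples, from duplicates, is reported as log2 fold change.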"}
{"target": "TCF25 (UniProt Q9BQ70)", "log2 fold change": "inactive: -0.06"}
{"target": "TFDP1 (UniProt Q14186)", "log2 fold change": "inactive: -0.184"}
{"target": "TBP (UniProt P20226)", "log2 fold change": "inactive: -0.003"}
{"target": "TBC1D14 (UniProt Q9P2M4)", "log2 fold change": "inactive: -0.383"}
{"target": "TBC1D20 isoform 3 (UniProt Q96BZ9)", "log2 fold change": "inactive: -0.044"}
{"target": "TCOF1 isoform 6 (UniProt Q13428)", "log2 fold change": "inactive: 0.027"}
{"target": "TDRD3 isoform 3 (UniProt Q9H7E2)", "log2 fold change": "inactive: 0.443"}
{"target": "TEX30 (UniProt Q5JUR7)", "log2 fold change": "inactive: -0.096"}
{"target": "TBC1D25 (UniProt Q3MII6)", "log2 fold change": "inactive: -0.029"}
{"target": "TCEAL4 isoform 2 (UniProt Q96EI5)", "log2 fold change": "inactive: -0.194"}
{"target": "TBC1D9 (UniProt Q6ZT07)", "log2 fold change": "inactive: -0.412"}
{"target": "TCEAL1 isoform 2 (UniProt Q15170)", "log2 fold change": "inactive: -0.063"}
{"target": "TCF3 isoform 2 (UniProt P15923)", "log2 fold change": "inactive: -0.119"}
{"target": "TC2N (UniProt Q8N9U0)", "log2 fold change": "inactive: -0.341"}
{"target": "TFAP4 (UniProt Q01664)", "log2 fold change": "inactive: -0.048"}
{"target": "TIFA (UniProt Q96CG3)", "log2 fold change": "inactive: 0.133"}
{"target": "TDRD7 (UniProt Q8NHU6)", "log2 fold change": "inactive: -0.146"}
{"compound": "CNCc1ccc(-c2[nH]c3cc(F)cc4c3c2CCNC4=O)cc1 [rucaparib]", "assay": "log2 fold change, soluble protein after heating vs DMSO (PISA); higher = thermal stabilisation; K562 cells, 10 uM, 30 min; active = over 0.2 and 3.5 SD of the protein, either way, in both replicates (recomputed)", "method_in_brief": "as §1"}
{"target": "TFDP1 (UniProt Q14186)", "log2 fold change": "inactive: 0.037"}
{"target": "TBP (UniProt P20226)", "log2 fold change": "inactive: 0.088"}
{"target": "TFDP2 (UniProt Q14188)", "log2 fold change": "inactive: 0.2"}
{"target": "TFIP11 (UniProt Q9UBB9)", "log2 fold change": "inactive: 0.045"}
{"target": "TBC1D20 isoform 3 (UniProt Q96BZ9)", "log2 fold change": "inactive: 0.05"}
{"target": "TCOF1 isoform 6 (UniProt Q13428)", "log2 fold change": "inactive: -0.022"}
{"target": "TLE3 (UniProt Q04726)", "log2 fold change": "inactive: 0.128"}
{"target": "TCOF1 isoform 3 (UniProt Q13428)", "log2 fold change": "inactive: -0.065"}
{"target": "TCP11L1 (UniProt Q9NUJ3)", "log2 fold change": "inactive: 0.103"}
{"target": "TEX10 (UniProt Q9NXF1)", "log2 fold change": "inactive: 0.573"}
{"target": "TCEAL4 isoform 2 (UniProt Q96EI5)", "log2 fold change": "inactive: -0.067"}
{"target": "TCAF2 (UniProt A6NFQ2)", "log2 fold change": "inactive: 0.588"}
{"target": "TBC1D2 (UniProt Q9BYX2)", "log2 fold change": "inactive: 0.264"}
{"target": "TCF3 isoform 2 (UniProt P15923)", "log2 fold change": "inactive: -0.104"}
{"target": "TET2 (UniProt Q6N021)", "log2 fold change": "inactive: -0.051"}
{"target": "TFAP4 (UniProt Q01664)", "log2 fold change": "inactive: 0.18"}
{"target": "TDRD7 (UniProt Q8NHU6)", "log2 fold change": "inactive: 0.096"}
